The target of test [1] is Flag-tagged FBXW7 (F-box and WD repeat domain-containing 7) (UniProt Q969H0). The experiment in a line: co-IP; MHCC-97H and Huh7 cells; NP-40 lysis buffer extracts incubated with anti-FBXW7 or anti-ACTL6A antibody at 4°C overnight, protein A/G beads 4 h at 4°C, Western blot.
In test [2] the target is Actin-like 6A (ACTL6A) (human (endogenous in MHCC-97H and Huh7)) (UniProt O96019). The test is described as above.

Sequences of proteins named here, by UniProt entry; tags and fusion partners are left off.
UniProt Q969H0: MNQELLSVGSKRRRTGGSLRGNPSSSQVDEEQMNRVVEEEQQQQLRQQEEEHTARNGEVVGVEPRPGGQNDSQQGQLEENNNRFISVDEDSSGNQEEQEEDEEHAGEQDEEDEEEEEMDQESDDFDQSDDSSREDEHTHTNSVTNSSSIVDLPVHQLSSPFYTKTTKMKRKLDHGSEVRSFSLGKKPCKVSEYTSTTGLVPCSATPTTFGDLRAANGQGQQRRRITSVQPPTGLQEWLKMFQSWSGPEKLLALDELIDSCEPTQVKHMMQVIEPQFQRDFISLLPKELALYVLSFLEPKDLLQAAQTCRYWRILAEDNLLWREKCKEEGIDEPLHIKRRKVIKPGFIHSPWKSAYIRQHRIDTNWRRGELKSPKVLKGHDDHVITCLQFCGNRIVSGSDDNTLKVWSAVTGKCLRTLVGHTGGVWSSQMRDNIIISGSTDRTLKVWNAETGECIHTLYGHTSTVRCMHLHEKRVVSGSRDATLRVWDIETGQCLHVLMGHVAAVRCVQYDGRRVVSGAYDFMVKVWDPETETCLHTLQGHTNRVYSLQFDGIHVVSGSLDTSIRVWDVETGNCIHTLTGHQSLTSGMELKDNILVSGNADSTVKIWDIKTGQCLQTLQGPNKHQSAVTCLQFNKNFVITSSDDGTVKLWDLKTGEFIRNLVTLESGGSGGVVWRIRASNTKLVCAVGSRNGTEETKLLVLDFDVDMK
UniProt O96019: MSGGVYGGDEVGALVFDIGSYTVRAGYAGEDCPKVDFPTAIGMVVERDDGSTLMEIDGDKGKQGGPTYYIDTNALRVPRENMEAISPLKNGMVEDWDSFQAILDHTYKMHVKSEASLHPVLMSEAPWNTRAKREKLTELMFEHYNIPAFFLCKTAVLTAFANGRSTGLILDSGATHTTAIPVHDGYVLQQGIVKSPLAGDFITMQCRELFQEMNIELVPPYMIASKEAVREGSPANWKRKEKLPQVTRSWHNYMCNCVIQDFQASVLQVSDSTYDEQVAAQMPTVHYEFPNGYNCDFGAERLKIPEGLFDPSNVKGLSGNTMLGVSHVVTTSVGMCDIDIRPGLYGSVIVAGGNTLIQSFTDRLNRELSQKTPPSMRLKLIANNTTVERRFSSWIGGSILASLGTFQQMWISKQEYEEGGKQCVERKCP

The source of these data is paper PMC9492413.

No constants are given. Whether binding was seen depends on the method and setting. In cells and extracts the contact can be indirect. Some entries that bind do so weakly or less than the wild type.

In the case of “Actin-like 6A (ACTL6A) (from UniProt O96019 1-429)”, the binding result in test [1] is listed as “binds”. Consider “Flag-tagged FBXW7 (F-box and WD repeat domain-containing 7) (from UniProt Q969H0 1-707)”, for which the binding result in test [2] is reported as “binds”.
